Assay results taken from ChEMBL document CHEMBL4513141, “CO-ADD screening of NIH (USA) - Clinical Collection” (2021).
The other results are listed elsewhere or left out. Potency and affinity values are given separately.

Test system: Pseudomonas aeruginosa
Conditions: Concentration 20 uM; ASSAY_TEST Inhibition of Bacterial Growth; detection method Absorption (OD600); MEDIA CAMHB; plate type 384well; NBS; CORNING #3640; time 18 hr

SMILES | Inhibition [%]
CCc1nn(CCCN2CCN(c3cccc(Cl)c3)CC2)c(=O)n1CCOc1ccccc1.Cl [NEFAZODONE HYDROCHLORIDE] | 7.83
CN(C)c1nc(N(C)C)nc(N(C)C)n1 [ALTRETAMINE] | 10.65
COCC1=C(C(=O)OC(C)OC(=O)OC(C)C)N2C(=O)[C@@H](NC(=O)/C(=N\OC)c3csc(N)n3)[C@H]2SC1 (stereo not given in full) [CEFPODOXIME PROXETIL] | 10
O=[N+]([O-])c1cccc2cn[nH]c12 [7-NITROINDAZOLE] | 14.08
CCCNCC(O)COc1ccccc1C(=O)CCc1ccccc1 (stereo not given) [PROPAFENONE] | 13.87
CN[C@@H]1[C@H](O)[C@H](NC)[C@H]2O[C@@]3(O)C(=O)C[C@@H](C)O[C@H]3O[C@@H]2[C@H]1O.Cl.Cl.Cl.O.O.O | 14.15
CCCCN1CCCC1CNC(=O)c1cc(C#N)c2ccccc2c1OC (stereo not given) [NAFADOTRIDE] | 9.49
CC(=O)O[C@]1(C(C)=O)CC[C@H]2[C@@H]3C=C(C)C4=CC(=O)CC[C@]4(C)[C@H]3CC[C@@]21C [MEGESTROL ACETATE] | 9.23
COc1ccc(C2CNC(=O)C2)cc1OC1CCCC1 (stereo not given) [ROLIPRAM] | 10.91
OC[C@H]1O[C@@H](Oc2cc(O)cc(/C=C/c3ccc(O)cc3)c2)[C@H](O)[C@@H](O)[C@@H]1O [PICEID] | 7.23
CC1(C)C[C@@H]1C(=O)N/C(=C\CCCCSC[C@H](N)C(=O)O)C(=O)[O-].[Na+] [CILASTATIN SODIUM] | 8.63
Cc1ccc(Cl)c(Nc2ccccc2C(=O)[O-])c1Cl.O.[Na+] [MECLOFENAMATE SODIUM] | 15.76
CC(C)NCC(O)COc1ccc(COCCOC(C)C)cc1.CC(C)NCC(O)COc1ccc(COCCOC(C)C)cc1.O=C(O)/C=C/C(=O)O (stereo not given) [BISOPROLOL FUMARATE] | 35.11
CC(=O)OCC(CCn1cnc2cnc(N)nc21)COC(C)=O [FAMCICLOVIR] | 12.09
Cc1nc(=O)c2cc(CN(C)c3ccc(C(=O)N[C@@H](CCC(=O)O)C(=O)O)s3)ccc2[nH]1 [RALTITREXED] | 12.62
CCOC(=O)[C@H](CCc1ccccc1)N[C@H]1CCc2ccccc2N(CC(=O)O)C1=O.Cl [BENAZEPRIL HYDROCHLORIDE] | 9.74
CC[C@]1(O)C[C@@H]2CN(CCc3c([nH]c4ccccc34)[C@@](C(=O)OC)(c3cc4c(cc3OC)N(C=O)[C@H]3[C@@](O)(C(=O)OC)[C@H](OC(C)=O)[C@]5(CC)C=CCN6CC[C@]43[C@@H]65)C2)C1.O=S(=O)(O)O | 17.99
CC(C)(C)NC(=O)[C@H]1CC[C@H]2[C@@H]3CC[C@H]4NC(=O)C=C[C@]4(C)[C@H]3CC[C@]12C [FINASTERIDE] | 15.1
CC12CCC(=O)C=C1CCC1C2CCC2(C)C1CCC2(O)C(=O)CO (stereo not given) | 7.63
Cc1cccc(C)c1NC(=O)C1CCCCN1C.Cl (stereo not given) [MEPIVACAINE HYDROCHLORIDE] | 12.98
O=c1[nH]c(=O)n(C2CCCO2)cc1F (stereo not given) [TEGAFUR] | 21.04
CC1=Nc2ccc(Cl)cc2S(=O)(=O)N1 [DIAZOXIDE] | 17.15
O=C(NCCO[N+](=O)[O-])c1cccnc1 [NICORANDIL] | 11.46

SMILES | Inhibition [%]
C[n+]1ccccc1/C=N/O.[Cl-] [PRALIDOXIME CHLORIDE] | 10.72
CNCC[C@H](Oc1cccc2ccccc12)c1cccs1.Cl [DULOXETINE HYDROCHLORIDE] | 13.26
CNC(=C[N+](=O)[O-])NCCSCc1ccc(CN(C)C)o1.Cl [RANITIDINE HYDROCHLORIDE] | 10.54
Cc1cnc(NC(=O)C2=C(O)c3ccccc3S(=O)(=O)N2C)s1 [MELOXICAM] | 4.04
Cl.O=C1CN2Cc3c(ccc(Cl)c3Cl)N=C2N1 [ANAGRELIDE HYDROCHLORIDE] | 17.86
CN(Cc1cnc2nc(N)nc(N)c2n1)c1ccc(C(=O)N[C@@H](CCC(=O)O)C(=O)O)cc1.O | 10.16
C[C@]12C=CC(=O)C=C1CC[C@@H]1[C@@H]2C(=O)C[C@@]2(C)[C@H]1CC[C@]2(O)C(=O)CO [PREDNISONE] | 17.68
CC1Cc2ccccc2N1NC(=O)c1ccc(Cl)c(S(N)(=O)=O)c1 (stereo not given) [INDAPAMIDE] | 6.26
CCc1c(C)[nH]c2c1C(=O)C(CN1CCOCC1)CC2.Cl (stereo not given) [MOLINDONE HYDROCHLORIDE] | 9.46
CN1CCC(=C2c3ccccc3CC(=O)c3sccc32)CC1.O=C(O)/C=C/C(=O)O [KETOTIFEN FUMARATE] | 11.46
CC1CCN(CCCC(=O)c2ccc(F)cc2)CC1.Cl | 18.9
NC(=O)N1c2ccccc2C=Cc2ccccc21 [CARBAMAZEPINE] | 9.78
Nc1nc(=O)c2nc(CNc3ccc(C(=O)N[C@@H](CCC(=O)O)C(=O)O)cc3)cnc2[nH]1 [FOLIC ACID] | 13.94
CCCCc1nc(Cl)c(CO)n1Cc1ccc(-c2ccccc2-c2nnn[n-]2)cc1.[K+] [LOSARTAN POTASSIUM] | 5.11
CNCCCCOc1ccccc1Cc1ccccc1.Cl | 15.72
CC(N/C(=N\C#N)Nc1ccncc1)C(C)(C)C.O (stereo not given) | 0.62
CC(=CCC1=C(C)C(=O)c2ccccc2C1=O)CCCC(C)CCCC(C)CCCC(C)C (stereo not given) | 12.7
CCN1CC(CCN2CCOCC2)C(c2ccccc2)(c2ccccc2)C1=O.Cl (stereo not given) | 16
CCCN[C@H]1CCc2nc(N)sc2C1 [PRAMIPEXOLE] | 15.84
Cc1cccc(CN2CCN(C(c3ccccc3)c3ccc(Cl)cc3)CC2)c1.Cl.Cl (stereo not given) | 8.84
OCCN1CCN(CCCN2c3ccccc3Sc3ccc(Cl)cc32)CC1 [PERPHENAZINE] | 23.05
Nc1ccc(S(=O)(=O)c2ccc(N)cc2)cc1 [DAPSONE] | 8.27

Filtered by structure, the compounds so far with an NH in an aromatic ring (six)
SMILES | Inhibition [%]
O=[N+]([O-])c1cccc2cn[nH]c12 [7-NITROINDAZOLE] | 14.08
Cc1nc(=O)c2cc(CN(C)c3ccc(C(=O)N[C@@H](CCC(=O)O)C(=O)O)s3)ccc2[nH]1 [RALTITREXED] | 12.62
CC[C@]1(O)C[C@@H]2CN(CCc3c([nH]c4ccccc34)[C@@](C(=O)OC)(c3cc4c(cc3OC)N(C=O)[C@H]3[C@@](O)(C(=O)OC)[C@H](OC(C)=O)[C@]5(CC)C=CCN6CC[C@]43[C@@H]65)C2)C1.O=S(=O)(O)O | 17.99
O=c1[nH]c(=O)n(C2CCCO2)cc1F (stereo not given) [TEGAFUR] | 21.04
CCc1c(C)[nH]c2c1C(=O)C(CN1CCOCC1)CC2.Cl (stereo not given) [MOLINDONE HYDROCHLORIDE] | 9.46
Nc1nc(=O)c2nc(CNc3ccc(C(=O)N[C@@H](CCC(=O)O)C(=O)O)cc3)cnc2[nH]1 [FOLIC ACID] | 13.94
